Test results taken from patent CN113651889A.
No constants are given. Whether binding was seen depends on the method and setting. Some results given as binding are weak or reduced against the parent protein; the word gives no strength.

Chains of the proteins cited; added tags and fusions are not shown. Residues count along the entry.
UniProt P29317, residues 24-976: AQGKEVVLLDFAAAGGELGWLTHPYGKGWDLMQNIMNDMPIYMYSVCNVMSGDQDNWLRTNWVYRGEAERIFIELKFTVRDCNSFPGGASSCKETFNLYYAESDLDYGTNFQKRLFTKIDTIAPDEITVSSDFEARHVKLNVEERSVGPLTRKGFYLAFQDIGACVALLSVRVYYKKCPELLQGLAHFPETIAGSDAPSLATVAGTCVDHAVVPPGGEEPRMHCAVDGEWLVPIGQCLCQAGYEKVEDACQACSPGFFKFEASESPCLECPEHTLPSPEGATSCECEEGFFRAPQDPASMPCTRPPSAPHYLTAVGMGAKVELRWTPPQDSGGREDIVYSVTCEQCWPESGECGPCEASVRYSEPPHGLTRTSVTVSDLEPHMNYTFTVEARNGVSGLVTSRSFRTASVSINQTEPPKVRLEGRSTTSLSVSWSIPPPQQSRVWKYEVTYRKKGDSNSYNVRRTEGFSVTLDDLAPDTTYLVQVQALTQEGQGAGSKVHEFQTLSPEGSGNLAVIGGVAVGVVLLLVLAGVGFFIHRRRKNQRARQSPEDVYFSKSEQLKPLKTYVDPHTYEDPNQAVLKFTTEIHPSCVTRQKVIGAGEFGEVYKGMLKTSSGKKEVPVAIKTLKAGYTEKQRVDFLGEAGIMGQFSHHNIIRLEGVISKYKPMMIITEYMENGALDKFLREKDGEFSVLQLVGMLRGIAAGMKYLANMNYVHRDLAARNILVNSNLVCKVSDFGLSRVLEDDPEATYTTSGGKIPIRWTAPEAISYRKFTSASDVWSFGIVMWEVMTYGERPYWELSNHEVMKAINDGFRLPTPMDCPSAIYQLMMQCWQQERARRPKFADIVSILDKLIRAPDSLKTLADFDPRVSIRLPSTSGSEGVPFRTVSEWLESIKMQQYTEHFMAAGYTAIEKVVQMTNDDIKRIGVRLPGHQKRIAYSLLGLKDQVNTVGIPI

B1: scFv14 (scFv)
scFv: QVQLQQWGAGLLKPSETLSLTCAVYGGSFSGYYWSWIRQPPGKGLEWIGEINHSGSTNYNPSLKSRVTISVDTSKNQFSLKLSSVTAADTAVYYCARVLRWMGWFDPWGQGTLVTVSSGSASAPTGGGGSGGGGSGGGGSGGGGSEIVLTQSPLSLPVTPGEPASISCRSSESLLHSNGHNFLDWYLQKPGQSPRLLIYSASNRASGVPDRFSGSGSGTDFTLKISRVEAEDVGVYYCMQGLQGLTFGGGTKVEIK
B2: scFv77 (scFv)
scFv: QVQLVQSGAEVKKPGASVKVSCRASGYRFTGAYIHWVRQAPGQGLEWMGWINPDNGDTNYAQKFQGRVSLTGDTSISTTYMEMKSLTFGDTAVYYCARSRAADYWGQGTLVTVSSGGGGSGGGGSGGGGSGGGGSQPVLTQSPSVSVSPGHRVTITCSGDNLGDKYVAWYQQKLGHSPVLVIFQDTKRPSGVPERFSGSTSENTATLTISGIQVLDEADYYCQAWDRSTAIFGGGTKVTVL

Biological target: EphA2 receptor on tumour cells (PC-3, HepG2, A549) and on lung adenocarcinoma tissue (human) (UniProt P29317)
Test: phage cell ELISA on PC-3, HepG2 and A549 cells

Binder	binding
B1	binds
B2	binds
